Results: article PMC5437232
These are yes or no findings as the source states them, for the method shown. Binding seen in cells or lysates may run through a third protein. Some results given as binding are weak or reduced against the parent protein; the word gives no strength.

The chains behind the UniProt entries cited, without tags or fusion partners. Where a name states a change or a piece, a line headed by the entry shows the natural chain unless it says otherwise. A line that says so, or that is headed by a name, gives the form on record, which may keep a tag or linker. Residues count along the entry.
wild-type MPO precursor (90-kDa apoproMPO/proMPO) expressed in stably transfected HEK cells (P05164, residues 49-745): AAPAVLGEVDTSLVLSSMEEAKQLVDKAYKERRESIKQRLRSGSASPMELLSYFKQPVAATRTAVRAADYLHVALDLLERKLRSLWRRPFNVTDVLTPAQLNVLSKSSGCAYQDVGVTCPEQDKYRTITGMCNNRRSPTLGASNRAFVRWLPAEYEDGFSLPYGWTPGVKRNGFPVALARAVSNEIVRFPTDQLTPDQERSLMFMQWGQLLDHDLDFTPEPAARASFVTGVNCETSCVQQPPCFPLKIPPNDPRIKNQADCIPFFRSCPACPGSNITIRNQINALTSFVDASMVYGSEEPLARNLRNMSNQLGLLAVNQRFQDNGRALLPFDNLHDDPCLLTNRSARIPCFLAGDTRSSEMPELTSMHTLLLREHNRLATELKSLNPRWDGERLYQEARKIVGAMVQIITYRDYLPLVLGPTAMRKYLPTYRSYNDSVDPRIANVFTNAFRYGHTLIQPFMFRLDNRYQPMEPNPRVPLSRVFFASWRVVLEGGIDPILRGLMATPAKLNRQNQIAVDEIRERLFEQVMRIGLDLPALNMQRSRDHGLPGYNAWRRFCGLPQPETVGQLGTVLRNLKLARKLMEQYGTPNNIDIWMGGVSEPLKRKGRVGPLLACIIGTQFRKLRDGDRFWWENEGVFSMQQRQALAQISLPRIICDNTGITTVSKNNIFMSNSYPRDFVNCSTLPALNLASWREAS
MPO mutant C158A precursor expressed in stably transfected HEK cells (P05164, form named): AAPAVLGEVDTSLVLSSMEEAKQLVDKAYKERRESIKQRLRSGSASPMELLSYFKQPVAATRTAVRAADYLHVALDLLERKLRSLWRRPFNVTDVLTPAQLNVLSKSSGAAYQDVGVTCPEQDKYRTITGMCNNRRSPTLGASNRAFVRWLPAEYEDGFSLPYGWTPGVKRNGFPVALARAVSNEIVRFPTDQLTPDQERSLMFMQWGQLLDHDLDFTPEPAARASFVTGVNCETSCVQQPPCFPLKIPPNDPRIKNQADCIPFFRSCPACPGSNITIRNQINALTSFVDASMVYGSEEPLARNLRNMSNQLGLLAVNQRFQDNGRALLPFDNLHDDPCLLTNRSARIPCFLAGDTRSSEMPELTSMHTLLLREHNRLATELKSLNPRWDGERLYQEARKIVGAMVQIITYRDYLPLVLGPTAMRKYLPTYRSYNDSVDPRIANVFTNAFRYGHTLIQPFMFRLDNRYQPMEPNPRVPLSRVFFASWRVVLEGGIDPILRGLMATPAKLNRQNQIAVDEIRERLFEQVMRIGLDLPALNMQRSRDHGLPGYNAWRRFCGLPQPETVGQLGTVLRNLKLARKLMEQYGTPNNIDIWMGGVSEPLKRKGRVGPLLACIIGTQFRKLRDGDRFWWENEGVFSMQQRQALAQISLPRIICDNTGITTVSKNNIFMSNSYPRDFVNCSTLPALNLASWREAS
MPO mutant C319A precursor expressed in stably transfected HEK cells (P05164, form named): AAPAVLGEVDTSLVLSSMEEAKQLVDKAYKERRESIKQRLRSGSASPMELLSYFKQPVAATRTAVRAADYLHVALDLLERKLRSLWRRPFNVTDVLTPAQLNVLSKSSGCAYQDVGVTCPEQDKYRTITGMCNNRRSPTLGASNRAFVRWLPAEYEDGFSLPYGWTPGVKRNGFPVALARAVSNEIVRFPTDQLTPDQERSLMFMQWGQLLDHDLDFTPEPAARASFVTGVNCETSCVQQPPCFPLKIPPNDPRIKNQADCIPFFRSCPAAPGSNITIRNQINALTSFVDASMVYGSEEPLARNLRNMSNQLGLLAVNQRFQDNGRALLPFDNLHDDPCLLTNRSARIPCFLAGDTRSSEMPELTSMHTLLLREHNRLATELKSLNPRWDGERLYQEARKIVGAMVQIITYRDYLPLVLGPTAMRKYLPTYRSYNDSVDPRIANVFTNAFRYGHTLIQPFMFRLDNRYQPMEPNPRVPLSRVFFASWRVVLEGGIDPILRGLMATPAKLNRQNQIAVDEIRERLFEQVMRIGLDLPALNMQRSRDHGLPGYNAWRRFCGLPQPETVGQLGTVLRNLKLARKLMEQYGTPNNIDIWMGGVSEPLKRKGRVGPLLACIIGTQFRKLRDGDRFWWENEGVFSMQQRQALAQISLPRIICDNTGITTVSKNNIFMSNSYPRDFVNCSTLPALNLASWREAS
MPO double mutant C158A/C319A precursor expressed in stably transfected HEK cells (P05164, form named): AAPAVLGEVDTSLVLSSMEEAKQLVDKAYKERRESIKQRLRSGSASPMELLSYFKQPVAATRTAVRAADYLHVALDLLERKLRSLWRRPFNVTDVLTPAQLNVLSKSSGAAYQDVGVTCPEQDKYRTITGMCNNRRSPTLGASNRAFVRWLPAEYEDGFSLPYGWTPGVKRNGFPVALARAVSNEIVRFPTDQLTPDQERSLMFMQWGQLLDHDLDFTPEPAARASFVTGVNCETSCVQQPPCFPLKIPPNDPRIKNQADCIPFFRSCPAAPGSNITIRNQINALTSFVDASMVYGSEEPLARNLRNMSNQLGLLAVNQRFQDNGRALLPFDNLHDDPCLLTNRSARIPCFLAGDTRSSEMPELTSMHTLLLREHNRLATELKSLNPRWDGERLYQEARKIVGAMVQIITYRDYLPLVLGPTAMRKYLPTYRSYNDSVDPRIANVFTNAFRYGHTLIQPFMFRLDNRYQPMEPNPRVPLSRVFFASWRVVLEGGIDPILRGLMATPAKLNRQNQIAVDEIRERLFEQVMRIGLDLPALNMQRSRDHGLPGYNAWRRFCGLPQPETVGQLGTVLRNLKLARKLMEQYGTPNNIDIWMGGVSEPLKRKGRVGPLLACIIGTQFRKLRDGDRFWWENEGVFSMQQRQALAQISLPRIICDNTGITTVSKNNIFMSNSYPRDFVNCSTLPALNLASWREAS

Tests used:
[1] = target: T1, calnexin (human (endogenous in HEK293)) (UniProt P27824); test: co-IP; data not shown; association of the C158A and C319A/C158A precursors with CLN in HEK cell lines
T1 sequence: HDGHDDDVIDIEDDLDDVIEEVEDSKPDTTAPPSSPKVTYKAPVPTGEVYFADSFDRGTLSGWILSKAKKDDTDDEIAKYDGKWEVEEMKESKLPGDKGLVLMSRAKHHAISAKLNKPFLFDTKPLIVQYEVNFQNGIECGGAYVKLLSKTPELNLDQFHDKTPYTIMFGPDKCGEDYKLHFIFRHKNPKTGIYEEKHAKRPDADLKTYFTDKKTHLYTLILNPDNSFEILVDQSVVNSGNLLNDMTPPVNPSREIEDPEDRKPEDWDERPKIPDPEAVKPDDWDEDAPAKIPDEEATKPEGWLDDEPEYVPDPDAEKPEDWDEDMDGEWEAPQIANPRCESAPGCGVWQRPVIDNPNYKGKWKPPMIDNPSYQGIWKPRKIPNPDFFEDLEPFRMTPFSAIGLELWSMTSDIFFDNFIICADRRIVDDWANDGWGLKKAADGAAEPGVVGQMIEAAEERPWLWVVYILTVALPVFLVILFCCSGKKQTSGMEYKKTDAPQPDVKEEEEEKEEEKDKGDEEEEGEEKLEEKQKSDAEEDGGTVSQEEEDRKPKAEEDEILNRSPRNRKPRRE

[2] = target: calreticulin (human (endogenous in HEK293)) (UniProt P27797); test: co-IP; sequential immunoprecipitation of lysates of biosynthetically [35S]-radiolabeled stable transfectants chased 0-4 h: first antibody against CLN or CRT under nondenaturing conditions, release by heating in 2% SDS, 10-fold dilution, then MPO antiserum; SDS-PAGE, autoradiography, PhosphorImager

Substance | binding [1] | binding [2]
MPO mutant C158A precursor expressed in stably transfected HEK cells (from UniProt P05164 49-745) | binds | 
wild-type MPO precursor (90-kDa apoproMPO/proMPO) expressed in stably transfected HEK cells (from UniProt P05164 49-745) |  | binds
MPO mutant C319A precursor expressed in stably transfected HEK cells (from UniProt P05164 49-745) |  | binds
MPO double mutant C158A/C319A precursor expressed in stably transfected HEK cells (from UniProt P05164 49-745) | binds | 
